# Results as given in the supplement of paper PMC8728848.
# This is one part of the list.
# Columns and labels:
# Assay in all cases: glycan array binding signal (z-score within array); higher = stronger binding
# Details in all cases: glycan notation: IUPAC condensed, linker removed
# [1] = target: Neu5Ac(a2-3)Gal6S(b1-4)[Fuc(a1-3)]GlcNAc
# How it was run: (§1)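 Columns mapping to the same glycan were averaged after glycan names were converted to IUPAC-condensed notation. The data come from 3228 arrays in the Consortium for Functional Glycomics database, limited to those with an available protein sequence. Binding is reported as a within-array Z-score averaged across arrays of one protein sequence and across linkers.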
# Neu5Ac(a2-3)GalNAc = target: Neu5Ac(a2-3)GalNAc
# How it was run: as §1
# [2] = target: Neu5Ac(a2-3)GalNAc(b1-4)GlcNAc
# How it was run: as §1
# [3] = target: Neu5Ac(a2-3)[GalNAc(b1-4)]Gal(b1-4)Glc
# How it was run: as §1
# [4] = target: Neu5Ac(a2-3)[GalNAc(b1-4)]Gal(b1-4)GlcNAc
# How it was run: as §1
# [5] = target: Neu5Ac(a2-3)[GalNAc(b1-4)]Gal(b1-4)GlcNAc(b1-3)GalNAc
# How it was run: as §1
# [6] = target: Neu5Ac(a2-3)[Neu5Ac(a2-6)]GalNAc
# How it was run: as §1
# Neu5Ac(a2-6)Gal = target: Neu5Ac(a2-6)Gal
# How it was run: as §1
# [7] = target: Neu5Ac(a2-6)Gal(b1-3)GlcNAc(b1-3)[Gal(b1-4)GlcNAc(b1-6)]Gal(b1-4)Glc
# How it was run: as §1
# Neu5Ac(a2-6)Gal(b1-4)Glc = target: Neu5Ac(a2-6)Gal(b1-4)Glc
# How it was run: as §1
# [8] = target: Neu5Ac(a2-6)Gal(b1-4)GlcNAc
# How it was run: as §1
# [9] = target: Neu5Ac(a2-6)Gal(b1-4)GlcNAc(b1-2)Man
# How it was run: as §1
# [10] = target: Neu5Ac(a2-6)Gal(b1-4)GlcNAc(b1-2)Man(a1-3)Man(b1-4)GlcNAc(b1-4)GlcNAc
# How it was run: as §1
# [11] = target: Neu5Ac(a2-6)Gal(b1-4)GlcNAc(b1-2)Man(a1-3)[Gal(b1-4)GlcNAc(b1-2)Man(a1-6)]Man(b1-4)GlcNAc(b1-4)GlcNAc
# How it was run: as §1
# [12] = target: Neu5Ac(a2-6)Gal(b1-4)GlcNAc(b1-2)Man(a1-3)[GlcNAc(b1-2)Man(a1-6)]Man(b1-4)GlcNAc(b1-4)GlcNAc
# How it was run: as §1
# [13] = target: Neu5Ac(a2-6)Gal(b1-4)GlcNAc(b1-2)Man(a1-3)[GlcNAc(b1-4)][Neu5Ac(a2-6)Gal(b1-4)GlcNAc(b1-2)Man(a1-6)]Man(b1-4)GlcNAc(b1-4)GlcNAc
# How it was run: as §1
# [14] = target: Neu5Ac(a2-6)Gal(b1-4)GlcNAc(b1-2)Man(a1-3)[Man(a1-6)]Man(b1-4)GlcNAc(b1-4)GlcNAc
# How it was run: as §1
# [15] = target: Neu5Ac(a2-6)Gal(b1-4)GlcNAc(b1-2)Man(a1-3)[Neu5Ac(a2-3)Gal(b1-4)GlcNAc(b1-2)Man(a1-6)]Man(b1-4)GlcNAc(b1-4)GlcNAc
# How it was run: as §1
# [16] = target: Neu5Ac(a2-6)Gal(b1-4)GlcNAc(b1-2)Man(a1-3)[Neu5Ac(a2-6)Gal(b1-4)GlcNAc(b1-2)Man(a1-6)]Man(b1-4)GlcNAc(b1-4)GlcNAc
# How it was run: as §1
# [17] = target: Neu5Ac(a2-6)Gal(b1-4)GlcNAc(b1-2)Man(a1-3)[Neu5Ac(a2-6)Gal(b1-4)GlcNAc(b1-2)Man(a1-6)]Man(b1-4)GlcNAc(b1-4)[Fuc(a1-6)]GlcNAc
# How it was run: as §1
# [18] = target: Neu5Ac(a2-6)Gal(b1-4)GlcNAc(b1-2)Man(a1-6)Man(b1-4)GlcNAc(b1-4)GlcNAc
# How it was run: as §1
# [19] = target: Neu5Ac(a2-6)Gal(b1-4)GlcNAc(b1-2)Man(a1-6)[Gal(b1-4)GlcNAc(b1-2)Man(a1-3)]Man(b1-4)GlcNAc(b1-4)GlcNAc
# How it was run: as §1
# [20] = target: Neu5Ac(a2-6)Gal(b1-4)GlcNAc(b1-2)Man(a1-6)[GlcNAc(b1-2)Man(a1-3)]Man(b1-4)GlcNAc(b1-4)GlcNAc
# How it was run: as §1
# [21] = target: Neu5Ac(a2-6)Gal(b1-4)GlcNAc(b1-2)Man(a1-6)[Man(a1-3)]Man(b1-4)GlcNAc(b1-4)GlcNAc
# How it was run: as §1
# [22] = target: Neu5Ac(a2-6)Gal(b1-4)GlcNAc(b1-2)[Neu5Ac(a2-6)Gal(b1-4)GlcNAc(b1-4)]Man(a1-3)[GlcNAc(b1-4)][Neu5Ac(a2-6)Gal(b1-4)GlcNAc(b1-2)[Neu5Ac(a2-6)Gal(b1-4)GlcNAc(b1-6)]Man(a1-6)]Man(b1-4)GlcNAc(b1-4)GlcNAc
# How it was run: as §1
# [23] = target: Neu5Ac(a2-6)Gal(b1-4)GlcNAc(b1-2)[Neu5Ac(a2-6)Gal(b1-4)GlcNAc(b1-4)]Man(a1-3)[GlcNAc(b1-4)][Neu5Ac(a2-6)Gal(b1-4)GlcNAc(b1-4)Man(a1-6)]Man(b1-4)GlcNAc(b1-4)GlcNAc
# How it was run: as §1
# [24] = target: Neu5Ac(a2-6)Gal(b1-4)GlcNAc(b1-2)[Neu5Ac(a2-6)Gal(b1-4)GlcNAc(b1-6)]Man(a1-6)[Neu5Ac(a2-6)Gal(b1-4)GlcNAc(b1-2)Man(a1-3)][GlcNAc(b1-4)]Man(b1-4)GlcNAc(b1-4)GlcNAc
# How it was run: as §1
# [25] = target: Neu5Ac(a2-6)Gal(b1-4)GlcNAc(b1-3)Gal(b1-3)GlcNAc
# How it was run: as §1
# [26] = target: Neu5Ac(a2-6)Gal(b1-4)GlcNAc(b1-3)Gal(b1-4)GlcNAc
# How it was run: as §1
# [27] = target: Neu5Ac(a2-6)Gal(b1-4)GlcNAc(b1-3)Gal(b1-4)GlcNAc(b1-2)Man(a1-3)[Neu5Ac(a2-6)Gal(b1-4)GlcNAc(b1-3)Gal(b1-4)GlcNAc(b1-2)Man(a1-6)]GalNAc
# How it was run: as §1
# [28] = target: Neu5Ac(a2-6)Gal(b1-4)GlcNAc(b1-3)Gal(b1-4)GlcNAc(b1-3)Gal(b1-4)GlcNAc
# How it was run: as §1
# [29] = target: Neu5Ac(a2-6)Gal(b1-4)GlcNAc(b1-3)Gal(b1-4)GlcNAc(b1-3)Gal(b1-4)GlcNAc(b1-2)Man(a1-3)[Neu5Ac(a2-6)Gal(b1-4)GlcNAc(b1-3)Gal(b1-4)GlcNAc(b1-3)Gal(b1-4)GlcNAc(b1-2)Man(a1-6)]GalNAc
# How it was run: as §1
# [30] = target: Neu5Ac(a2-6)Gal(b1-4)GlcNAc(b1-3)Gal(b1-4)GlcNAc(b1-3)GalNAc
# How it was run: as §1
# [31] = target: Neu5Ac(a2-6)Gal(b1-4)GlcNAc(b1-3)Gal(b1-4)GlcNAc(b1-3)[Neu5Ac(a2-6)Gal(b1-4)GlcNAc(b1-3)Gal(b1-4)GlcNAc(b1-6)]GalNAc
# How it was run: as §1
# [32] = target: Neu5Ac(a2-6)Gal(b1-4)GlcNAc(b1-3)Gal(b1-4)GlcNAc(b1-6)[Gal(b1-3)]GalNAc
# How it was run: as §1
# [33] = target: Neu5Ac(a2-6)Gal(b1-4)GlcNAc(b1-3)Gal(b1-4)[Fuc(a1-3)]GlcNAc(b1-3)Gal(b1-4)[Fuc(a1-3)]GlcNAc
# How it was run: as §1
# [34] = target: Neu5Ac(a2-6)Gal(b1-4)GlcNAc(b1-3)GalNAc
# How it was run: as §1
# [35] = target: Neu5Ac(a2-6)Gal(b1-4)GlcNAc(b1-3)[Neu5Ac(a2-6)Gal(b1-4)GlcNAc(b1-6)]GalNAc
# How it was run: as §1
# [36] = target: Neu5Ac(a2-6)Gal(b1-4)GlcNAc(b1-6)GalNAc
# How it was run: as §1
# [37] = target: Neu5Ac(a2-6)Gal(b1-4)GlcNAc(b1-6)[Gal(b1-3)GlcNAc(b1-3)]Gal(b1-4)Glc
# How it was run: as §1
# [38] = target: Neu5Ac(a2-6)Gal(b1-4)GlcNAc(b1-6)[Gal(b1-3)]GalNAc
# How it was run: as §1
# [39] = target: Neu5Ac(a2-6)Gal(b1-4)GlcNAc6S
# How it was run: as §1
# Neu5Ac(a2-6)GalNAc = target: Neu5Ac(a2-6)GalNAc
# How it was run: as §1
# [40] = target: Neu5Ac(a2-6)GalNAc(b1-4)GlcNAc
# How it was run: as §1
# [41] = target: Neu5Ac(a2-6)GalNAc(b1-4)GlcNAc6S
# How it was run: as §1
binder,measurement,setting,value
"CD34 (Homo sapiens), P28906 (protein) MGSSHHHHHHSSGLVPRGSHMSTSLATSPTKPYTSSSPILSDIKAEIKCSGIREVKLTQGICLEQNKTSSCAEFKKDRGEGLARVLCGEEQADADAGAQVCSLLLAQSEVRPQCLLLVLANRTEISSKLQLMKKHQSDLKKLGILDFTEQDVASHQSYSQKT",glycan array binding signal (z-score),[1],-1.26
same,glycan array binding signal (z-score),Neu5Ac(a2-3)GalNAc,-0.16
same,glycan array binding signal (z-score),[2],-0.485
same,glycan array binding signal (z-score),[3],-0.466
same,glycan array binding signal (z-score),[4],-0.966
same,glycan array binding signal (z-score),[5],0.434
same,glycan array binding signal (z-score),[6],-0.204
same,glycan array binding signal (z-score),Neu5Ac(a2-6)Gal,0.74
same,glycan array binding signal (z-score),[7],-1.06
same,glycan array binding signal (z-score),Neu5Ac(a2-6)Gal(b1-4)Glc,-0.493
same,glycan array binding signal (z-score),[8],-0.16
same,glycan array binding signal (z-score),[9],0.9
same,glycan array binding signal (z-score),[10],-0.367
same,glycan array binding signal (z-score),[11],0.266
same,glycan array binding signal (z-score),[12],1.12
same,glycan array binding signal (z-score),[13],-0.155
same,glycan array binding signal (z-score),[14],0.171
same,glycan array binding signal (z-score),[15],0.395
same,glycan array binding signal (z-score),[16],0.118
same,glycan array binding signal (z-score),[17],0.512
same,glycan array binding signal (z-score),[18],0.49
same,glycan array binding signal (z-score),[19],-0.644
same,glycan array binding signal (z-score),[20],-0.534
same,glycan array binding signal (z-score),[21],0.414
same,glycan array binding signal (z-score),[22],-0.831
same,glycan array binding signal (z-score),[23],-0.027
same,glycan array binding signal (z-score),[24],-0.322
same,glycan array binding signal (z-score),[25],0.143
same,glycan array binding signal (z-score),[26],-0.694
same,glycan array binding signal (z-score),[27],0.167
same,glycan array binding signal (z-score),[28],0.533
same,glycan array binding signal (z-score),[29],1.44
same,glycan array binding signal (z-score),[30],0.803
same,glycan array binding signal (z-score),[31],0.8
same,glycan array binding signal (z-score),[32],-0.659
same,glycan array binding signal (z-score),[33],-0.272
same,glycan array binding signal (z-score),[34],-0.496
same,glycan array binding signal (z-score),[35],-0.477
same,glycan array binding signal (z-score),[36],1.05
same,glycan array binding signal (z-score),[37],-0.278
same,glycan array binding signal (z-score),[38],0.485
same,glycan array binding signal (z-score),[39],-0.077
same,glycan array binding signal (z-score),Neu5Ac(a2-6)GalNAc,-0.596
same,glycan array binding signal (z-score),[40],-0.952
same,glycan array binding signal (z-score),[41],0.66

# Three neighbouring entries out of the list so far, for reference:
binder,measurement,setting,value
"CD34 (Homo sapiens), P28906 (protein) MGSSHHHHHHSSGLVPRGSHMSTSLATSPTKPYTSSSPILSDIKAEIKCSGIREVKLTQGICLEQNKTSSCAEFKKDRGEGLARVLCGEEQADADAGAQVCSLLLAQSEVRPQCLLLVLANRTEISSKLQLMKKHQSDLKKLGILDFTEQDVASHQSYSQKT",glycan array binding signal (z-score),[28],0.533
same,glycan array binding signal (z-score),[29],1.44
same,glycan array binding signal (z-score),[30],0.803
